In paper PMC10969742, “A Phase I Study of the Oral Dual-Acting Pan-PI3K/mTOR Inhibitor Bimiralisib in Patients with Advanced Solid Tumors” (Cancers, 2024):
Read-outs that look alike come from different tables or passages of the source.

System: patients with advanced solid tumors
Format: in vivo
Protocol: This was a Phase 1, open-label, multi-center, non-randomized, dose escalation study evaluating DLTs, tolerability, PK, and preliminary efficacy of bimiralisib in the treatment of patients with advanced solid tumors for which no standard curative or life-prolonging therapy is available. This study was conducted in the US (MD Anderson Cancer Center, Houston; Mayo Clinic Rochester; Roswell Park Comprehensive Cancer Center, Buffalo; University Hospitals of Cleveland), Spain (Vall Hebron University Hospital), Switzerland (Basel University Hospital), and UK (University College London Hospitals NHS Trust and Oxford Universities NHS Trust).
The primary objective of the study was to determine the MTD of bimiralisib administered according to three different dosing schedules. Bimiralisib was formulated as 20 mg and 80 mg capsules for oral administration. The first dosing schedule to be evaluated was continuous (once daily) dosing over a 21-day cycle. […] Patients enrolled in the continuous schedule and intermittent schedule A received a single lead-in dose, administered on […] prior to the start of the first 21-day treatment cycle, to characterize single-dose pharmacokinetics. Based on the previous first-in-human trial with bimiralisib, together with the expected toxicity profile of PI3K/mTOR inhibitors, the starting dose (dose-level 1) of bimiralisib in Study PQR309-003 was set at 80 mg daily.
Safety was monitored by physical examination, vital signs, weight, electrocardiogram, ECOG performance status, laboratory evaluations (including glucose monitoring), and patient self-reported mood questionnaires, as well as AEs. All AEs were coded with NCI Common Terminology Criteria for Adverse Events (CTCAE) v4.03 [27]. The MTD was defined as the maximum dose level at which ≤1/6 patients have DLTs. […] If the patient derived benefit from the treatment as determined by the investigator, treatment could be resumed at a lower dose in agreement with the study sponsor. […]
Descriptive statistics were used to present the data. […] Data were analyzed using SAS. […]

Nc1cc(C(F)(F)F)c(-c2nc(N3CCOCC3)nc(N3CCOCC3)n2)cn1 [bimiralisib, 5-(4,6-Dimorpholino-1,3,5-triazin-2-yl)-4-(trifluoromethyl)pyridin-2-amine]
Mean duration of treatment (and standard deviation) (80 mg continuous dosing): 57.2 ± 74.1 days
Mean duration of treatment (and standard deviation) (140 mg intermittent schedule A): 72.7 ± 39.0 days
Mean duration of treatment (and standard deviation) (140 mg intermittent schedule B): 82.7 ± 81.5 days
